Test results as given in patent US20130244929A1 (priority 2010, published 2013).

Assay: general procedure: solution-phase peptide synthesis; EDCI/HOBT/DIPEA; HATU/DIPEA
Settings: coupling step, trifluoroacetate

Going from “methyl(8S,11S,14S)-14-[{(2S)-2-{[(benzyloxy)carbonyl]amino}-6-[(tert-butoxycarbonyl)amino]hexanoyl}(methyl)amino]-3,18-dimethoxy-11-methyl-10,13-dioxo-9,12-diazatricyclo[13.3.1.1^2,6]icosa-1(19),2(20),3,5,15,17-hexaene-8-carboxylate” to “methyl(8S,11S,14S)-14-[{(2S)-6-[(tert-butoxycarbonyl)amino]-2-[(3-{[(4′-propylbiphenyl-4-yl)carbonyl]amino}propanoyl)amino]hexanoyl}(methyl)amino]-3,18-dimethoxy-11-methyl-10,13-dioxo-9,12-diazatricyclo[13.3.1.1^2,6]icosa-1(19),2(20),3,5,15,17-hexaene-8-carboxylate”, the step yield rises from 72% to 76%.

Same assay, conditions: late stage modification step, trifluoroacetate

First: 6-[[(7S,10S,13S)-13-(aminocarboxyl)-3,18-dihydroxy-10-methyl-8,11-dioxo-9,12-diazatricyclo[13.3.1.1^2,6]icosa-1(19),2(20),3,5,15,17-hexaen-7-yl](methyl)amino]-6-oxo-5-[(3-{[(4′-propylbiphenyl-4-yl)carbonyl]amino}propanoyl)amino]hexan-1-aminium trifluoroacetate
Second: (5S)-6-[[(7S,10S,13S)-3,18-dimethoxy-13-(methoxycarbonyl)-10-methyl-8,11-dioxo-9,12-diazatricyclo[13.3.1.1^2,6]icosa-1(19),2(20),3,5,15,17-hexaen-7-yl](methyl)amino]-6-oxo-5-[(3-{[(4′-propylbiphenyl-4-yl)carbonyl]amino}propanoyl)amino]hexan-1-aminium trifluoroacetate
The step yield of the first is lower: 67% for the first, 100% for the second.

Going from “(5S)-6-[[(7S,10S,13S)-13-carboxy-3,18-dihydroxy-10-methyl-8,11-dioxo-9,12-diazatricyclo[13.3.1.1^2,6]icosa-1(19),2(20),3,5,15,17-hexaen-7-yl](methyl)amino]-6-oxo-5-[(3-{[(4′-propylbiphenyl-4-yl)carbonyl]amino}propanoyl)amino]hexan-1-aminium trifluoroacetate” to “methyl(8S,11S,14S)-14-[{(2S)-2-amino-6-[(tert-butoxycarbonyl)amino]hexanoyl}(methyl)amino]-3,18-dimethoxy-11-methyl-10,13-dioxo-9,12 diazatricyclo[13.3.1.1^2,6]icosa-1(19),2(20),3,5,15,17-hexaene-8-carboxylate”, the step yield rises from 54% to 93%.
